The supplement of paper PMC5407854, “Inhibitor of ppGalNAc-T3-mediated O-glycosylation blocks cancer cell invasiveness and lowers FGF23 levels” (eLife, 2017)
The other results are listed elsewhere or left out. Most entries show no effect beyond the scatter of the controls.

These compounds were tested on ppGalNAc-T2 sensor (assay: T2 sensor activation Q score (MG/GFP ratio z-score vs DMSO controls) (SD units); higher = more sensor activation (inhibition of ppGalNAc-T2 glycosylation)). Details: HEK293 sensor cells; 10 µM; 6 h.
Description: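 Cells were treated with compound at 10 uM for 6 h, then MG/GFP ratio was read by flow cytometry (10,000 cells per well, duplicate wells). Q = (R - R_neg)/SD_neg relative to DMSO vehicle controls; the signal rises when the glycosyltransferase is inhibited.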

Question: How did the “T2 sensor activation Q score” value turn out when Cc1ccc(C(=O)NCc2ccc([N+](=O)[O-])cc2)cc1 was run?
Answer: 0.34

Question: With CCN1CCN(Cc2coc3ccccc3c2=O)CC1 as the compound, how does the “T2 sensor activation Q score” value read?
Answer: -0.18

Question: For NC(=O)C1CCCN(Cc2ccc(Cl)cc2)C1 (stereo not given), which “T2 sensor activation Q score” value is on record?
Answer: 0.325

Question: How did the “T2 sensor activation Q score” value turn out when Cc1ccc(S(=O)(=O)Nc2cccc3ccc(-n4nc(C)cc4C)nc23)cc1 was run?
Answer: 0.24

Question: For CCCCOc1ccc(-c2ncc([N+](=O)[O-])cn2)cc1, which “T2 sensor activation Q score” value is on record?
Answer: 0.205

Question: With CN1CCCN(Cc2ccc(F)cc2)CC1 as the compound, how does the “T2 sensor activation Q score” value read?
Answer: 0.21

Question: With Cc1cccc(C(=O)N2CCOCC2)c1 as the compound, how does the “T2 sensor activation Q score” value read?
Answer: -0.425

Question: O=C1CCS(=O)(=O)c2ccccc21 was tested. Which “T2 sensor activation Q score” value did it give?
Answer: -0.26

Question: How did the “T2 sensor activation Q score” value turn out when Nc1nc(N)nc(-c2ccc(I)cc2)n1 was run?
Answer: 1.09

Question: How did the “T2 sensor activation Q score” value turn out when CCN(CC)CCN(C)Cc1ccc([N+](=O)[O-])cc1 was run?
Answer: 0.28

Question: With CCN(CC)S(=O)(=O)c1cc(C(=O)O)ccc1Br as the compound, how does the “T2 sensor activation Q score” value read?
Answer: -1.1

Question: NC(=O)NC(c1ccccc1)c1ccc(Br)cc1 (stereo not given) was tested. Which “T2 sensor activation Q score” value did it give?
Answer: -0.4

Question: Which “T2 sensor activation Q score” value does the source give for CCN(CC)CCN(C)Cc1cccc(F)c1 here?
Answer: 0.07

Question: With Cc1occc1C(=O)NC(C)c1ccccc1 (stereo not given) as the compound, how does the “T2 sensor activation Q score” value read?
Answer: 0.21

Question: With c1ccc2c(c1)-c1ccccc1C2N1CCNCC1 as the compound, how does the “T2 sensor activation Q score” value read?
Answer: -1.27

Question: CC(=O)Nc1cc2c(cc1C(=O)c1ccccc1Cl)OCCO2 was tested. Which “T2 sensor activation Q score” value did it give?
Answer: -1.47

Question: For NNC(=O)c1n[nH]c2c1CCCC2, which “T2 sensor activation Q score” value is on record?
Answer: -0.625

Question: Which “T2 sensor activation Q score” value does the source give for Cc1onc(-c2ccccc2Cl)c1C(=O)N1CC(C)OC(C)C1 (stereo not given) here?
Answer: 0.26

Question: How did the “T2 sensor activation Q score” value turn out when CCCN1CCC(N(C)CCN(C)C)CC1 was run?
Answer: -0.715

Question: How did the “T2 sensor activation Q score” value turn out when C=CCN1C(=O)C(=O)C(=C(O)c2ccccc2)C1c1ccccc1 (stereo not given) was run?
Answer: -0.52

Question: How did the “T2 sensor activation Q score” value turn out when CN1C(=O)CC(N2CCN(c3ccc(Cl)cc3)CC2)C1=O (stereo not given) was run?
Answer: -0.455

Question: How did the “T2 sensor activation Q score” value turn out when Cc1ccc(OCC(=O)N2CCN(c3ccccc3)CC2)cc1 was run?
Answer: 0.46

Question: O=C(c1cccc(F)c1)N1CCOCC1 was tested. Which “T2 sensor activation Q score” value did it give?
Answer: -1.21

Question: Which “T2 sensor activation Q score” value does the source give for CCCCN(C)C1CCN(Cc2ccccc2)CC1 here?
Answer: -0.115

Question: CCOc1ccccc1C(=O)NCCc1ccc(F)cc1 was tested. Which “T2 sensor activation Q score” value did it give?
Answer: 0.52

Question: How did the “T2 sensor activation Q score” value turn out when CC1CCCCN1C(=O)c1ccc(C(=O)N2CCCCC2C)cc1 (stereo not given) was run?
Answer: 1.02

Question: With COc1cccc(OC)c1C(=O)Nc1ccccc1C as the compound, how does the “T2 sensor activation Q score” value read?
Answer: -0.535

Question: How did the “T2 sensor activation Q score” value turn out when c1ccc(CN2CCN(Cc3cccnc3)CC2)cc1 was run?
Answer: 0.03

Question: How did the “T2 sensor activation Q score” value turn out when CCSc1cc(C)nc2ncnn12 was run?
Answer: 2.29

Question: O=S(=O)(NC1CCCCC1)c1cccc2nsnc12 was tested. Which “T2 sensor activation Q score” value did it give?
Answer: -0.71

Question: For COc1ccc(CC(=O)Nc2cccc(F)c2)cc1, which “T2 sensor activation Q score” value is on record?
Answer: 1.88

Question: For COc1ccc(CNc2ccc3c(c2)CCC3)cc1, which “T2 sensor activation Q score” value is on record?
Answer: -0.71

Question: Which “T2 sensor activation Q score” value does the source give for Cc1nnc2c(N3CCOCC3)nc3ccccc3n12 here?
Answer: -0.07

Question: Which “T2 sensor activation Q score” value does the source give for Cc1ccccc1OCCCN1CCCCC1 here?
Answer: -0.52

Question: Which “T2 sensor activation Q score” value does the source give for Cn1c(S(=O)(=O)Cc2ccc(Cl)cc2)nc2ccccc21 here?
Answer: 1.66

Question: Which “T2 sensor activation Q score” value does the source give for CCN1CCN(C/C(C)=C/c2ccccc2)CC1 here?
Answer: 0.345

Question: For COc1ccc(NC2=CC(=O)CCC2)c(OC)c1, which “T2 sensor activation Q score” value is on record?
Answer: 0.89

Question: With COc1cc(C)c(CN2CCC(O)CC2)cc1C as the compound, how does the “T2 sensor activation Q score” value read?
Answer: 0.405

Question: With Cc1ccc(CN2CCCN(C)CC2)s1 as the compound, how does the “T2 sensor activation Q score” value read?
Answer: 0.205

Question: Cc1ccc(S(=O)(=O)Nc2ccc(Cl)cc2)cc1 was tested. Which “T2 sensor activation Q score” value did it give?
Answer: -1.78
